Experimental data from PubChem BioAssay AID540256 (National Center for Advancing Translational Sciences (NCATS), 2011).
Screen size: about 300,000 compounds; about 3,700 (1.2%) were called active. Inconclusive means that the source gave no clear call. Such entries were picked first, then a sample of the others. Calls follow the shape of the full dose curve; tested in HEK293 cells. Potencies beside an inconclusive call are fits to weak or partial responses and may not hold up. Some compounds were tested as several samples or in several runs, with calls that do not always agree.

Assay: qHTS for Inhibitors of binding or entry into cells for Lassa Virus; also: nearly all actives have a fitted effect of over 50% in size
Conditions: Lassa virus pseudotype entry inhibition, cell reporter; activity change, negative = inhibition: at 37.9 µM (top of the series) unless noted
% is scaled to controls: 0 for no effect and ±100 for the full control effect; potency is read from the fitted curve at half-maximal effect.

SMILES	Potency	activity change, negative = inhibition
CC(C)c1ccc(S(=O)(=O)N2CCC3(CC2)OCCO3)cc1	inconclusive: 15.8 µM [inhibitor, single point]	–
CCOC(=O)c1c(C=O)c(C)n(Cc2ccc(C)cc2)c1C	inconclusive: 20.6 µM [inhibitor, single point]	–
O=C(NC1CCCN(Cc2ccc(Cl)cc2)C1)c1ccoc1 (stereo not drawn)	–	inactive: 6.41% [at 46.1 µM]
CCOc1ccc2nc(SC(C)C(N)=O)[nH]c2c1 (stereo not drawn)	inconclusive: 0.184 µM [inhibitor, single point]	–
CN1/C(=C\C=N\NC(=O)c2ccccc2Br)C(C)(C)c2ccccc21	inconclusive: 20.6 µM [inhibitor, single point]	–
Cc1c(-n2c(=O)n(Cc3ccccc3)c(=O)c3[nH]cnc32)cccc1S(C)=O (stereo not drawn)	inconclusive: 0.708 µM [inhibitor, partial curve, poor fit]	–
C=CCOc1ccc2c(CC)cc(=O)oc2c1C	inconclusive: 17.8 µM [activator, single point]	–
C#C[C@]1(O)CCC2C3C(=O)C=C4C=CCC[C@]4(C)C3CC[C@@]21C (stereo partly drawn)	inconclusive: 3.16 µM [inhibitor, partial curve, poor fit]	–
FC(F)Sc1ccc(NC(=S)NCC2CCCCC2)cc1	–	inactive: -25.5%
CNCc1ccccc1Sc1cccc(O)c1	inconclusive: 0.708 µM [inhibitor, single point]	–
Cc1ccc(C)c(S(=O)(=O)NCC(c2ccc(N(C)C)cc2)N2CCOCC2)c1 (stereo not drawn)	inconclusive: 6.31 µM [inhibitor, partial curve, poor fit]	–
COc1cc(-c2nc(CN(C)C(C)c3ccncn3)c(C)o2)ccc1F (stereo not drawn)	–	inactive: -6.81%
CCCCC(NC(=O)Cc1c(C)c2cc3c4c(oc3cc2oc1=O)CCCC4)C(=O)O (stereo not drawn)	inconclusive: 14.1 µM [activator, partial curve, poor fit]	–
C=CCn1cccc(C(=O)Nc2ccc(OCC)cc2)c1=O	inconclusive: 11.2 µM [inhibitor, single point]	–
COC(=O)c1ccc(OC(=O)CCN2C(=O)C3C4c5ccccc5C(c5ccccc54)C3C2=O)cc1 (stereo not drawn)	inconclusive: 1.26 µM [inhibitor, partial curve, poor fit]	–
Cc1ccc(NC(=S)NC(=O)Cc2ccccc2)c(O)c1	–	inactive: 0.417%
C=CCn1c(=N)n(CC(=O)c2ccc(Br)s2)c2ccccc21	inconclusive: 29.1 µM [inhibitor, single point]	–
CC(C)N(C(=O)COC(=O)c1cncc(Br)c1)C(C)C	inconclusive: 22.4 µM [inhibitor, single point]	–
COc1ccc(-c2noc(-c3ccc(Br)o3)n2)cc1	inconclusive: 25.1 µM [inhibitor, single point]	–
Cc1cccc(-n2cc(-c3ccccc3)nc2SCC(=O)Nc2ccccc2Cl)c1	–	inactive: -1.48% [at 46.1 µM]
O=S(=O)(NCc1ccncc1)c1ccc(S(=O)(=O)NCC2CCCO2)cc1 (stereo not drawn)	inconclusive: 9.2 µM [inhibitor, partial curve, poor fit]	–
COc1ccc(O)c(C(=O)CC(=O)c2ccc(F)cc2)c1	active: 10 µM	–

SMILES	Potency	activity change, negative = inhibition
COc1ccc(N(CC(=O)Nc2ccc3c(c2)OCCO3)S(=O)(=O)c2c(C)noc2C)cc1	inconclusive: 12.6 µM [inhibitor, partial curve, poor fit]	–
CCN(CC)S(=O)(=O)c1cc(C(=O)OCC(=O)Nc2ccc(-c3nc4ccc(C)cc4s3)cc2)ccc1F	active: 3.16 µM	–
O=C(NCCSCc1ccco1)Nc1cc(Cl)cc(Cl)c1	inconclusive: 35.5 µM [activator, partial curve, poor fit]	–
Cc1cccc(C)c1NC(=O)Cn1c(CN2CCCCC2)nc2ccccc2c1=O	–	inactive: -4.36%
CN(C)c1ccc(C(=S)N2CCCCCC2)cc1	inconclusive: 14.6 µM [inhibitor, partial curve]	–
COc1ccc(C(=O)/C=C/c2cn(CC(O)CN(CC(C)C)CC(C)C)c3ccccc23)cc1OC (stereo not drawn)	inconclusive: 35.5 µM [inhibitor, single point]	–
CC(C)n1cc(/C=C2/SC(=O)N(CC(=O)N3CCCC3)C2=O)c2ccccc21	–	inactive: -0.101%
Cn1c(=O)c2sccc2n2c(CCCC(=O)Nc3ccc(F)c(F)c3)nnc12	–	inactive: -9.18% [at 46.1 µM]
Cc1nccn1CC(=O)N/N=C/c1c[nH]c2ccccc12	inconclusive: 4.47 µM [inhibitor, full curve, poor fit]	–
O=[N+]([O-])c1ncccc1OCc1ccc(Br)cc1F	inconclusive: 5.62 µM [activator, partial curve]	–
COc1cccc(-c2cc(C(F)(F)F)nc(NCc3ccc(F)cc3)n2)c1	–	inactive: -9.05% [at 46.1 µM]
CCCCNC(=O)CSc1c2c(nc3ccc(Cl)cc13)CCCC2	inconclusive: 12.6 µM [inhibitor, partial curve, poor fit]	–
COCCN(Cc1nc2ccccc2c(=O)[nH]1)C(=O)COc1ccccc1-c1ccccc1	inconclusive: 2.82 µM [inhibitor, full curve, poor fit]	–
CC(C)CN(CC(C)C)C(=O)Nc1ccccc1F	–	inactive: 23.6% [at 46.1 µM]
Cn1c(=O)c(C(=O)N2CCc3ccccc32)cc2cccnc21	inconclusive: 0.112 µM [inhibitor, full curve, poor fit]	–
Cc1ccc(OCCn2cc(C(=O)O)c3ccccc32)cc1	–	inactive: 14.5% [at 46.1 µM]
Cc1ccc(C)c(N2CCN(C(=O)CN3C(=S)NC(C)(C)CC3C)CC2)c1 (stereo not drawn)	inconclusive: 1.12 µM [activator, single point]	–
CCOC(=O)c1nnn(-c2nonc2N)c1-c1cccc2ccccc12	inconclusive: 35.5 µM [inhibitor, partial curve, poor fit]	–
CCCC1CC(C)(/C(C)=N\NC(N)=S)OC1=O (stereo not drawn)	–	inactive: -16.4% [at 46.1 µM]
COc1ccc(CNC(=O)CN2CCN(c3cccc(C)c3C)CC2)cc1	inconclusive: 4.47 µM [inhibitor, full curve]	–
CCOCCOC(=O)c1[nH]c2c(c1C)C(=O)CC(c1ccc(OC)c(OC)c1)C2 (stereo not drawn)	inconclusive: 10 µM [inhibitor, partial curve, poor fit]	–
O=C(c1ccco1)c1nc2c(n1O)CCCCC2	–	inactive: 2.52%
Cc1cccc(NC(=O)c2sc3cccc(Cl)c3c2Cl)c1	inconclusive: 7.94 µM [activator, partial curve]	–

Fetched by compound from above:
SMILES	Potency	activity change, negative = inhibition
Cc1ccc(OCCn2cc(C(=O)O)c3ccccc32)cc1	–	inactive: 14.5% [at 46.1 µM]
CCCC1CC(C)(/C(C)=N\NC(N)=S)OC1=O (stereo not drawn)	–	inactive: -16.4% [at 46.1 µM]

The list goes on:

SMILES	Potency	activity change, negative = inhibition
CCCCN(C)S(=O)(=O)c1ccc(C(=O)Nc2nnc(CSC)o2)cc1	inconclusive: 14.1 µM [inhibitor, partial curve]	–
Cc1ccccc1NS(=O)(=O)c1cc(C(=O)NCCC2=CCCCC2)ccc1C	inconclusive: 13 µM [inhibitor, partial curve, poor fit]	–
Cc1cccc(C)c1NC(=O)c1ccc2nc(CCc3ccccc3)oc2c1	inconclusive: 35.5 µM [inhibitor, single point]	–
N/C(=N\OC(=O)c1ccco1)c1ccc(Cl)cc1	inconclusive: 15.8 µM [activator, single point]	–
CN(CC(=O)Nc1cccc(C#N)c1)S(=O)(=O)c1cc2c(cc1Cl)NC(=O)CO2	–	inactive: 1.12% [at 46.1 µM]
CCOC(=O)c1cnc(SCC(=O)NCc2cccs2)nc1N	–	inactive: 22.3%
Cc1sc(NC(=O)c2ccccc2F)c(CN2CCCCC2)c1C	–	inactive: 26.3%
O=C(NC(=S)Nc1ccc2c(c1)OCCO2)c1ccco1	inconclusive: 12.6 µM [inhibitor, single point]	–
COCCn1c(SCC(=O)Nc2cc(C)cc(C)c2)nnc1C(C)C	inconclusive: 3.16 µM [activator, single point]	–
O=C(Nc1ccc(Cl)cc1)c1ccc2c(c1)N(Cc1ccccc1)C(=O)c1ccccc1S2(=O)=O	inconclusive: 7.08 µM [inhibitor, partial curve, poor fit]	–
Cc1cc2oc(C(=O)Nc3cccc(-c4nc5ccccc5o4)c3)c(C)c2cc1Cl	–	inconclusive: 30.3% [activator] [at 46.1 µM]
Cc1ccnc(NC(=O)Nc2ccc(Br)cc2Cl)c1	inconclusive: 7.94 µM [inhibitor, partial curve, poor fit]	–
C[C@H]1CC[C@H]2C(=O)N3[C@H](c4ccccc4Br)[C@@H](C)CC[C@H]3C(=O)N2[C@@H]1c1ccccc1Br	inconclusive: 20.6 µM [inhibitor, partial curve]	–
c1ccc(N2CCN(c3ncnc4c3nc3n4CCCC3)CC2)cc1	inconclusive: 28.2 µM [inhibitor, single point]	–
COc1cccc(NC(=O)COC(=O)c2ccc(F)cc2F)c1	–	inactive: 22.5%
COC(=O)c1c(NC(NC(=O)C(C)C)C(Cl)(Cl)Cl)sc2c1CCC2 (stereo not drawn)	inconclusive: 22.4 µM [inhibitor, partial curve, poor fit]	–
CCOC(=O)c1c(NC(=O)CC2SC(N)=NC2=O)sc2c1CCC(C)C2 (stereo not drawn)	–	inactive: -20.6%
CCn1c(C)nc2cc(C(=O)N/N=C/c3ccc(O)cc3)ccc21	inconclusive: 12.6 µM [activator, single point]	–
Cc1nnc(N2CCC(C(=O)NCc3ccc(N(C)C)cc3)CC2)c2nn(-c3ccccc3)c(C)c12	inconclusive: 1 µM [inhibitor, full curve]	–
CC1CCN(CCCNC(=O)c2cc3sccc3n2C)CC1	–	inactive: -15.3%
Cc1ccc(C(=O)COC(=O)C(Cc2c[nH]c3ccccc23)NC(=O)c2ccc(Br)cc2)cc1 (stereo not drawn)	inconclusive: 1.78 µM [inhibitor, partial curve, poor fit]	–
Cc1nn2c(-n3ccnc3C)c3c(nc2c1-c1ccccc1)CCC3	inconclusive: 32.6 µM [inhibitor, partial curve, poor fit]	–

Already shown: entries from further up.
SMILES	Potency	activity change, negative = inhibition
O=C(NC(=S)Nc1ccc2c(c1)OCCO2)c1ccco1	inconclusive: 12.6 µM [inhibitor, single point]	–
COCCn1c(SCC(=O)Nc2cc(C)cc(C)c2)nnc1C(C)C	inconclusive: 3.16 µM [activator, single point]	–
